Experimental data taken from PMC10014292.
Results are given in words; binding and its absence hold for the method and conditions named. In cells and extracts the contact can be indirect. Some entries that bind do so weakly or less than the wild type. Sequences can lack the tags named with a protein.

Molecular target: T1, TRPC6-YFP fusion protein (human transient receptor potential canonical type 6) (human) (UniProt Q9Y210)
T1 sequence (chain, O-GlcNAc at Ser13/14, Thr70 and Thr221 (constitutive, by mass spectrometry)): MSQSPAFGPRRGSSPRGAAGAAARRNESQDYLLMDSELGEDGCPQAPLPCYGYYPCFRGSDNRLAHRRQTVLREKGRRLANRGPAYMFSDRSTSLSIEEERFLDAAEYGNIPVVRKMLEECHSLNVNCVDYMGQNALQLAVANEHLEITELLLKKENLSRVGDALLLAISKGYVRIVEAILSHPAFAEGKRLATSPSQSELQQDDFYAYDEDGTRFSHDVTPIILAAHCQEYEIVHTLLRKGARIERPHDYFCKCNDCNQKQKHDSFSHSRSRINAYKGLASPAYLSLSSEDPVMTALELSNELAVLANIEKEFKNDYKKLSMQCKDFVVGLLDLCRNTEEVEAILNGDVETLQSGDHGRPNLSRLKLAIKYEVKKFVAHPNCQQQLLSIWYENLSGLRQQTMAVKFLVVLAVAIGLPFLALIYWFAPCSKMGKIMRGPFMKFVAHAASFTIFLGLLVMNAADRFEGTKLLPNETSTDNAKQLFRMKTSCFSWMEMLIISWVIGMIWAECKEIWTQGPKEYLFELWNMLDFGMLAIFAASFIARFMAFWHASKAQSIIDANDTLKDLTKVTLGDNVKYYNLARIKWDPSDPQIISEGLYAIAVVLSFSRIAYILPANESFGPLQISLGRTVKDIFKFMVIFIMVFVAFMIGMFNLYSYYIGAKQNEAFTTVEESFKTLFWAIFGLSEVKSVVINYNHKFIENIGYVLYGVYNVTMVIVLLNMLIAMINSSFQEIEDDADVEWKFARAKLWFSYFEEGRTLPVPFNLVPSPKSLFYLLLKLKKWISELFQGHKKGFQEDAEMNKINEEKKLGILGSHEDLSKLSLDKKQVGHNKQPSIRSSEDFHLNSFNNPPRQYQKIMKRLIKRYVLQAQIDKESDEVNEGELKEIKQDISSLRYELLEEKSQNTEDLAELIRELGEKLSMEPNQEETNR
Assay: co-IP; HEK-293T co-transfected with TRPC6-YFP and OGT-Flag; lysed in RIPA buffer; TRPC6-YFP captured on GFP M-trap beads, 4 h at 4°C; washed in 20 mM Tris/HCl pH 7.4, 150 mM NaCl, 1 mM EDTA, 0.05% Triton X100, 5% glycerol; precipitate probed with OGT antibody

B1: O-GlcNAc transferase (OGT), Flag-tagged (enzyme, UniProt O15294 1-1046)
chain: MASSVGNVADSTEPTKRMLSFQGLAELAHREYQAGDFEAAERHCMQLWRQEPDNTGVLLLLSSIHFQCRRLDRSAHFSTLAIKQNPLLAEAYSNLGNVYKERGQLQEAIEHYRHALRLKPDFIDGYINLAAALVAAGDMEGAVQAYVSALQYNPDLYCVRSDLGNLLKALGRLEEAKACYLKAIETQPNFAVAWSNLGCVFNAQGEIWLAIHHFEKAVTLDPNFLDAYINLGNVLKEARIFDRAVAAYLRALSLSPNHAVVHGNLACVYYEQGLIDLAIDTYRRAIELQPHFPDAYCNLANALKEKGSVAEAEDCYNTALRLCPTHADSLNNLANIKREQGNIEEAVRLYRKALEVFPEFAAAHSNLASVLQQQGKLQEALMHYKEAIRISPTFADAYSNMGNTLKEMQDVQGALQCYTRAIQINPAFADAHSNLASIHKDSGNIPEAIASYRTALKLKPDFPDAYCNLAHCLQIVCDWTDYDERMKKLVSIVADQLEKNRLPSVHPHHSMLYPLSHGFRKAIAERHGNLCLDKINVLHKPPYEHPKDLKLSDGRLRVGYVSSDFGNHPTSHLMQSIPGMHNPDKFEVFCYALSPDDGTNFRVKVMAEANHFIDLSQIPCNGKAADRIHQDGIHILVNMNGYTKGARNELFALRPAPIQAMWLGYPGTSGALFMDYIITDQETSPAEVAEQYSEKLAYMPHTFFIGDHANMFPHLKKKAVIDFKSNGHIYDNRIVLNGIDLKAFLDSLPDVKIVKMKCPDGGDNADSSNTALNMPVIPMNTIAEAVIEMINRGQIQITINGFSISNGLATTQINNKAATGEEVPRTIIVTTRSQYGLPEDAIVYCNFNQLYKIDPSTLQMWANILKRVPNSVLWLLRFPAVGEPNIQQYAQNMGLPQNRIIFSPVAPKEEHVRRGQLADVCLDTPLCNGHTTGMDVLWAGTPMVTMPGETLASRVAASQLTCLGCLELIAKNRQEYEDIAVKLGTDLEYLKKVRGKVWKQRISSPLFNTKQYTMELERLYLQMWEHYAAGNKPDHMIKPVEVTESA
B1 was tested, and the binding was “binds”.
